This note sets out measurements from patent publication US20090197853A1, “METHODS AND COMPOSITIONS OF TREATING CANCER” (priority 2005, published 2009).

The test system of this series is Ramos cells. Nature of the series: Gene expression profiling on Human Genome U133 Plus 2.0 Arrays, Ramos cultures. It is filed as cell-based. How it is done: Methods: Gene Expression Profiling—MGd (10 μM), Zn(OAc)2 (25 or 50 μM, the combinations, or control (5% mannitol) solution were added to Ramos cultures. Each treatment was performed in triplicate. After 4 hours of incubation, all cultures were washed twice with 0.5% BSA in HBSS and total RNA was isolated and subjected to analysis on Human Genome U133 Plus 2.0 Arrays (Affymetrix, Santa Clara, Calif.). Microarray Suite version 5.0 software (Affymetrix) was used to generate raw gene expression scores and normalize the relative hybridization signal from each experiment. All gene expression scores were set to a minimum value of fifty in order to minimize noise associated with less robust measurements of rare transcripts. Both the parametric Student's t-test and the permutation-based significance analysis of microarrays (SAM) were used to determine genes differentially expressed in treatment versus control groups.

In the case of `CC(=O)[O-].CC(=O)[O-].[Zn+2]` [Zn(OAc)2, Zinc acetate], the “Number of significantly changed transcripts” value (Ramos, 25 μM zinc acetate, 4 hours) stood at 3. Besides, for the setting “Ramos, 50 μM zinc acetate”, the “Number of down-regulated transcripts” value is recorded as 63 and the “Number of up-regulated transcripts” value stood at 284. Under “Ramos, 50 μM zinc acetate, 4 hours”, the “Number of significantly changed transcripts” value is given as 347.

Regarding `CC(=O)[O-].CC(=O)[O-].CCc1c(CC)c2cc3nc(cnc4cc(OCCOCCOCCOC)c(OCCOCCOCCOC)cc4ncc4nc(cc1[n-]2)C(CCCO)=C4C)C(C)=C3CCCO.O.[Gd+3]` [MGd, Motexafin gadolinium], the “Number of down-regulated transcripts” value (Ramos, 10 μM MGd, 4 hours) is listed as “six”. In addition, the “Share of MGd-changed transcripts also changed by 50 μM zinc acetate” value (≧1.5-fold in the same direction, p≦0.005) is recorded as 41%.
